# This is one part of the list.
# Tests used:
# Assay in all cases: glycan array binding signal (z-score within array); higher = stronger binding
# Conditions in all cases: glycan notation: IUPAC condensed, linker removed
# [1] = molecular target: Man(a1-2)Man(a1-3)[Man(a1-2)Man(a1-6)]Man(a1-6)[Man(a1-2)Man(a1-2)Man(a1-3)]Man(b1-4)GlcNAc(b1-4)GlcNAc
# Procedure, shortened: (§1)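 The binding signal is a Z-score computed within each array. Data were drawn from 3228 arrays in the Consortium for Functional Glycomics database, restricted to those with a known protein sequence. Scores were averaged over arrays of the same protein sequence at different concentrations or buffers, and over linkers, and negative values can be taken as non-binding.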
# [2] = molecular target: Man(a1-2)Man(a1-3)[Man(a1-6)]Man(a1-6)[Man(a1-2)Man(a1-3)]Man(b1-4)GlcNAc(b1-4)GlcNAc
# Procedure, shortened: as §1
# [3] = molecular target: Man(a1-2)Man(a1-6)[Man(a1-3)]Man(a1-6)[Man(a1-2)Man(a1-2)Man(a1-3)]Man
# Procedure, shortened: as §1
# [4] = molecular target: Man(a1-2)Man(a1-6)[Man(a1-3)]Man(a1-6)[Man(a1-2)Man(a1-2)Man(a1-3)]Man(b1-4)GlcNAc(b1-4)GlcNAc
# Procedure, shortened: as §1
# Man(a1-3)[Man(a1-6)]Man = molecular target: Man(a1-3)[Man(a1-6)]Man
# Procedure, shortened: as §1
# [5] = molecular target: Man(a1-3)[Man(a1-6)]Man(a1-6)[Man(a1-2)Man(a1-3)]Man(b1-4)GlcNAc(b1-4)GlcNAc
# Procedure, shortened: as §1
# [6] = molecular target: Man(a1-3)[Man(a1-6)]Man(a1-6)[Man(a1-3)]Man
# Procedure, shortened: as §1
# [7] = molecular target: Man(a1-3)[Man(a1-6)]Man(a1-6)[Man(a1-3)]Man(b1-4)GlcNAc(b1-4)GlcNAc
# Procedure, shortened: as §1
# [8] = molecular target: Man(a1-3)[Man(a1-6)]Man(b1-4)GlcNAc(b1-4)GlcNAc
# Procedure, shortened: as §1
# [9] = molecular target: Man(a1-3)[Man(a1-6)]Man(b1-4)GlcNAc(b1-4)[Fuc(a1-6)]GlcNAc
# Procedure, shortened: as §1
# Man(a1-6)Man = molecular target: Man(a1-6)Man
# Procedure, shortened: as §1
# Man(b1-4)GlcNAc = molecular target: Man(b1-4)GlcNAc
# Procedure, shortened: as §1
# MurNAc(b1-4)GlcNAc = molecular target: MurNAc(b1-4)GlcNAc
# Procedure, shortened: as §1
# Neu5Ac(a2-3)Gal = molecular target: Neu5Ac(a2-3)Gal
# Procedure, shortened: as §1
# [10] = molecular target: Neu5Ac(a2-3)Gal(b1-3)GalNAc
# Procedure, shortened: as §1
# [11] = molecular target: Neu5Ac(a2-3)Gal(b1-3)GalNAc(b1-3)Gal(a1-4)Gal(b1-4)Glc
# Procedure, shortened: as §1
# [12] = molecular target: Neu5Ac(a2-3)Gal(b1-3)GalNAc(b1-4)[Neu5Ac(a2-3)]Gal(b1-4)Glc
# Procedure, shortened: as §1
# [13] = molecular target: Neu5Ac(a2-3)Gal(b1-3)GalNAc(b1-4)[Neu5Ac(a2-8)Neu5Ac(a2-3)]Gal(b1-4)Glc
# Procedure, shortened: as §1
# [14] = molecular target: Neu5Ac(a2-3)Gal(b1-3)GalNAc6S
# Procedure, shortened: as §1
# [15] = molecular target: Neu5Ac(a2-3)Gal(b1-3)GlcNAc
# Procedure, shortened: as §1
# [16] = molecular target: Neu5Ac(a2-3)Gal(b1-3)GlcNAc(b1-2)Man
# Procedure, shortened: as §1
# [17] = molecular target: Neu5Ac(a2-3)Gal(b1-3)GlcNAc(b1-2)Man(a1-3)[GlcNAc(b1-4)][Neu5Ac(a2-3)Gal(b1-3)GlcNAc(b1-2)Man(a1-6)]Man(b1-4)GlcNAc(b1-4)GlcNAc
# Procedure, shortened: as §1
# [18] = molecular target: Neu5Ac(a2-3)Gal(b1-3)GlcNAc(b1-2)Man(a1-3)[Neu5Ac(a2-3)Gal(b1-3)GlcNAc(b1-2)Man(a1-6)]Man(b1-4)GlcNAc(b1-4)GlcNAc
# Procedure, shortened: as §1
# [19] = molecular target: Neu5Ac(a2-3)Gal(b1-3)GlcNAc(b1-3)Gal(b1-3)GlcNAc
# Procedure, shortened: as §1
# [20] = molecular target: Neu5Ac(a2-3)Gal(b1-3)GlcNAc(b1-3)Gal(b1-4)GlcNAc
# Procedure, shortened: as §1
# [21] = molecular target: Neu5Ac(a2-3)Gal(b1-3)GlcNAc(b1-3)GalNAc
# Procedure, shortened: as §1
# [22] = molecular target: Neu5Ac(a2-3)Gal(b1-3)GlcNAc(b1-4)Gal(b1-4)Glc
# Procedure, shortened: as §1
# [23] = molecular target: Neu5Ac(a2-3)Gal(b1-3)GlcNAc(b1-6)GalNAc
# Procedure, shortened: as §1
# [24] = molecular target: Neu5Ac(a2-3)Gal(b1-3)GlcNAc6S
# Procedure, shortened: as §1
# [25] = molecular target: Neu5Ac(a2-3)Gal(b1-3)[Fuc(a1-4)]GlcNAc
# Procedure, shortened: as §1
# [26] = molecular target: Neu5Ac(a2-3)Gal(b1-3)[Fuc(a1-4)]GlcNAc(b1-3)Gal(b1-3)[Fuc(a1-4)]GlcNAc
# Procedure, shortened: as §1
# [27] = molecular target: Neu5Ac(a2-3)Gal(b1-3)[Fuc(a1-4)]GlcNAc(b1-3)Gal(b1-4)[Fuc(a1-3)]GlcNAc
# Procedure, shortened: as §1
# [28] = molecular target: Neu5Ac(a2-3)Gal(b1-3)[GlcNAc(b1-6)]GalNAc
# Procedure, shortened: as §1
# [29] = molecular target: Neu5Ac(a2-3)Gal(b1-3)[Neu5Ac(a2-6)]GalNAc
# Procedure, shortened: as §1
# [30] = molecular target: Neu5Ac(a2-3)Gal(b1-3)[Neu5Ac(a2-6)]GlcNAc(b1-3)[Fuc(a1-3)[Gal(b1-4)]GlcNAc(b1-6)]Gal(b1-4)Glc
# Procedure, shortened: as §1
# [31] = molecular target: Neu5Ac(a2-3)Gal(b1-3)]Neu5Ac(a2-3)Gal(b1-4)]GlcNAc
# Procedure, shortened: as §1
# Neu5Ac(a2-3)Gal(b1-4)Glc = molecular target: Neu5Ac(a2-3)Gal(b1-4)Glc
# Procedure, shortened: as §1
binder,measurement,setting,value
Pbx2CASH domain (Cryptococcus neoformans) (protein) GIPGPNRLYRLSGPIIFTAADQEIATYGYPTGSERAVLRVEGRNTATAIQGDCRRCARVSVKNLVVDGNRKKLGRMRDFQLATGLVVLGGNEGQSIQNSWIKNPRGFTAIHIREGDKLQCSGARVEKNEIGPVGEEYDPEKDGDDPEMSPLGRPLADGVSIACRDSFIRDNTFRDNTDAAIVVYCSPGTLIHA,glycan array binding signal (z-score),[1],0.931
same,glycan array binding signal (z-score),[2],-0.457
same,glycan array binding signal (z-score),[3],-0.354
same,glycan array binding signal (z-score),[4],-0.098
same,glycan array binding signal (z-score),Man(a1-3)[Man(a1-6)]Man,-0.351
same,glycan array binding signal (z-score),[5],-0.454
same,glycan array binding signal (z-score),[6],-0.1
same,glycan array binding signal (z-score),[7],0.392
same,glycan array binding signal (z-score),[8],0.243
same,glycan array binding signal (z-score),[9],-0.459
same,glycan array binding signal (z-score),Man(a1-6)Man,-0.514
same,glycan array binding signal (z-score),Man(b1-4)GlcNAc,-0.401
same,glycan array binding signal (z-score),MurNAc(b1-4)GlcNAc,-0.63
same,glycan array binding signal (z-score),Neu5Ac(a2-3)Gal,-0.926
same,glycan array binding signal (z-score),[10],0.801
same,glycan array binding signal (z-score),[11],-0.528
same,glycan array binding signal (z-score),[12],-0.487
same,glycan array binding signal (z-score),[13],-0.308
same,glycan array binding signal (z-score),[14],-0.777
same,glycan array binding signal (z-score),[15],-0.147
same,glycan array binding signal (z-score),[16],3.35
same,glycan array binding signal (z-score),[17],0.248
same,glycan array binding signal (z-score),[18],0.27
same,glycan array binding signal (z-score),[19],-0.391
same,glycan array binding signal (z-score),[20],0.239
same,glycan array binding signal (z-score),[21],0.011
same,glycan array binding signal (z-score),[22],-0.379
same,glycan array binding signal (z-score),[23],-0.644
same,glycan array binding signal (z-score),[24],-0.247
same,glycan array binding signal (z-score),[25],-0.813
same,glycan array binding signal (z-score),[26],-0.211
same,glycan array binding signal (z-score),[27],-0.049
same,glycan array binding signal (z-score),[28],-0.249
same,glycan array binding signal (z-score),[29],0.256
same,glycan array binding signal (z-score),[30],-0.803
same,glycan array binding signal (z-score),[31],-0.117
same,glycan array binding signal (z-score),Neu5Ac(a2-3)Gal(b1-4)Glc,-0.228

# Reformatted tab-delimited: entries from further up
binder	measurement	setting	value
Pbx2CASH domain (Cryptococcus neoformans) (protein) GIPGPNRLYRLSGPIIFTAADQEIATYGYPTGSERAVLRVEGRNTATAIQGDCRRCARVSVKNLVVDGNRKKLGRMRDFQLATGLVVLGGNEGQSIQNSWIKNPRGFTAIHIREGDKLQCSGARVEKNEIGPVGEEYDPEKDGDDPEMSPLGRPLADGVSIACRDSFIRDNTFRDNTDAAIVVYCSPGTLIHA	glycan array binding signal (z-score)	Man(a1-3)[Man(a1-6)]Man	-0.351
same	glycan array binding signal (z-score)	Neu5Ac(a2-3)Gal	-0.926

# — the supplement of paper PMC8728848
